Measured values taken from publication PMC13042984.
For some of these results: The comparison behind a weaker result is the experiment's own reference, which may not be listed here. For some of these results: Results from cells or extracts need not show a direct contact. For some of these results: No signal at the amounts used counts as a negative. For some of these results: At least one verdict rests on a figure or table, not on a statement of the authors. For some of these results: Protein sequences can lack the tags named with them. For some of these results: Construct, isoform or probe ends are uncertain for at least one entry.

Chains of the proteins cited; added tags and fusions are not shown. Where a name states a change or a piece, a line headed by the entry shows the natural chain unless it says otherwise. Chains listed by the source or under a name are the forms on record and can include a tag or linker. Residues count along the entry.
UniProt P48382, 75-168: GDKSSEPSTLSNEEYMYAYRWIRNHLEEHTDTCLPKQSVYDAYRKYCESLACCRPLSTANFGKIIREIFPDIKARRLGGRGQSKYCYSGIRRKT
UniProt Q9UBB5: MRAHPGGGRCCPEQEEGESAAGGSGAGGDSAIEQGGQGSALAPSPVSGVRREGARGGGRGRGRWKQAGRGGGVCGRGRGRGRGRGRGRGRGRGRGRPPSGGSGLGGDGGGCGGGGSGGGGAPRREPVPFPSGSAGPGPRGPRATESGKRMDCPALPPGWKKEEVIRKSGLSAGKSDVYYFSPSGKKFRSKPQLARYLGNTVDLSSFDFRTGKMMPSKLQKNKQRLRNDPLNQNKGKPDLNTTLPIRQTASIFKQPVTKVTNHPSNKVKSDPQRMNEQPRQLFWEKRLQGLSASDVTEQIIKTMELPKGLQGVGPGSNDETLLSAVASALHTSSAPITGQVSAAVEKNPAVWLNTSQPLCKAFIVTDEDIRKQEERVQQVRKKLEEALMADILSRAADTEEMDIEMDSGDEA
UniProt P61244, whole entry: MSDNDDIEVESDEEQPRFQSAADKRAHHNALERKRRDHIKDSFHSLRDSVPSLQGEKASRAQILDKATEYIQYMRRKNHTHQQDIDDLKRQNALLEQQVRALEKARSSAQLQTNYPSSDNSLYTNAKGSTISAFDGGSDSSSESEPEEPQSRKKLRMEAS
MBP-MYC (Homo sapiens), one chain, as listed by the source: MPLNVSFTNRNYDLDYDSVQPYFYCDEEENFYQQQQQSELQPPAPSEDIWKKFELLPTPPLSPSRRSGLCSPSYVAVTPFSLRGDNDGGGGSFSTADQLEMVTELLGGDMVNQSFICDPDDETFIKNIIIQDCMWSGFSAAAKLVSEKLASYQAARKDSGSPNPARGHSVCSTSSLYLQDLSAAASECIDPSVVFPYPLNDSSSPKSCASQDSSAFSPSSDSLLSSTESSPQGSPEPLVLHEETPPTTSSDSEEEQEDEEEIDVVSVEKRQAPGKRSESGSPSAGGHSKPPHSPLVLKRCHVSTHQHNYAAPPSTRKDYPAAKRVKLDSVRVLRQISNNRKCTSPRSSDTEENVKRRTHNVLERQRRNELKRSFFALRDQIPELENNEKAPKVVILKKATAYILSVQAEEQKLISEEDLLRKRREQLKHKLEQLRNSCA

Key:
MBP-RFX5 (Homo sapiens) = MBP-RFX5 (Homo sapiens) (UniProt P48382); experiment: pull-down dot blot; conditions: pulldown: 50 mM Tris pH 8, 150 mM NaCl, 1 mM DTT, 0.25% IGEPAL, dA:dT competitor, 4 C overnight, protein in a lysate after overexpression, residues 1-616, protein details: N-terminal MBP, C-terminal His
[1] = target: T1, MBP-RFXANK (Homo sapiens) (UniProt O14593); experiment: pull-down dot blot; conditions: pulldown: 50 mM Tris pH 8, 150 mM NaCl, 1 mM DTT, 0.25% IGEPAL, dA:dT competitor, 4 C overnight, protein in a lysate after overexpression, residues 1-260, protein details: N-terminal MBP, C-terminal His
T1 sequence (looked up): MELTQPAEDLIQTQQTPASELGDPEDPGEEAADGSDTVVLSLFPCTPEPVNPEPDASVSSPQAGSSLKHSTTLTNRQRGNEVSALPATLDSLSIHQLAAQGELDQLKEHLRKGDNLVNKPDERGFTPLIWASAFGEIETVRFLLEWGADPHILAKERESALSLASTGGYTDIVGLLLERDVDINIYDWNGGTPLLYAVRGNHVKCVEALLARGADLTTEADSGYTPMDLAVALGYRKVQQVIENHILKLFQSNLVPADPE

MBP-MBD2 (Homo sapiens) = MBP-MBD2 (Homo sapiens) (UniProt Q9UBB5); experiment: pull-down western blot; conditions: pulldown: 50 mM Tris pH 8, 150 mM NaCl, 1 mM DTT, 0.25% IGEPAL, dA:dT competitor, 4 C overnight, recombinant protein, protein details: N-terminal MBP
RFX5 DBD (Homo sapiens) = RFX5 DBD (Homo sapiens) (UniProt P48382); experiment: EMSA; conditions: EMSA: 20 mM HEPES, 30 mM KCl, 1 mM EDTA, 1 mM (NH4)2SO4, 0.2% Tween 20, 1 mM DTT, 5 uM dA:dT competitor, 2 nM DNA, 20 min, 21 C (pH not stated), recombinant protein, residues 75-168, protein details: MBP removed by TEV, C-terminal His
MBP-MYC (Homo sapiens) = experiment: pull-down dot blot; conditions: pulldown: 50 mM Tris pH 8, 150 mM NaCl, 1 mM DTT, 0.25% IGEPAL, dA:dT competitor, 4 C overnight, protein in a lysate after overexpression, residues 1-439, protein details: N-terminal MBP, C-terminal His
MBP-MAX (Homo sapiens) = MBP-MAX (Homo sapiens) (UniProt P61244); experiment: pull-down dot blot; conditions: pulldown: 50 mM Tris pH 8, 150 mM NaCl, 1 mM DTT, 0.25% IGEPAL, dA:dT competitor, 4 C overnight, protein in a lysate after overexpression, residues 1-160, protein details: N-terminal MBP, C-terminal His
[2] = hmC in one strand, mC in the other, outside primers, strand order not stated explicitly
[3] = hmC at all C of both strands outside primers (CpG and CpH)
[4] = mC at all C of both strands outside primers (CpG and CpH)
[5] = hmC in one strand outside primers, other strand unmodified, strand order not stated explicitly

Sequence: TTTCCAAAGCCCATTCCCTCTTTAGCCAGAGCCGGGGTGTGCAGACGGCAGTCACTAGGGGGCGCTCGGCCACCACAGGGAAGCTGGGTGAATGGAGCGAGCAGCGTCTTCGAGAGTGAGGACGTGTGTGTCTGTGTGGGTGAGTGAGTGTGTGCGTGTGGGGTTGAGGGCGTTGGAGCGGGGAGAAGGCCAGGGGTCACT (double strand) [VEGFA PCR probe hmC/mC]
- binding result (MBP-RFX5 (Homo sapiens); similar to mC/mC, hmC in one strand, mC in the other, outside primers, strand order not stated explicitly): binds
- binding result [1, 2]: no binding
- binding result (MBP-MBD2 (Homo sapiens); 1 nM in HEK293T nuclear extract, hmC in one strand, mC in the other, outside primers, strand order not stated explicitly): binds more weakly
- binding result (RFX5 DBD (Homo sapiens); [2]): binds more weakly

Sequence: TTTCCAAAGCCCATTCCCTCTTTAGCCAGAGCCGGGGTGTGCAGACGGCAGTCACTAGGGGGCGCTCGGCCACCACAGGGAAGCTGGGTGAATGGAGCGAGCAGCGTCTTCGAGAGTGAGGACGTGTGTGTCTGTGTGGGTGAGTGAGTGTGTGCGTGTGGGGTTGAGGGCGTTGGAGCGGGGAGAAGGCCAGGGGTCACT (double strand) [VEGFA PCR probe hmC/hmC]
- binding result (MBP-RFX5 (Homo sapiens); [3]): binds more weakly
- binding result (MBP-MYC (Homo sapiens); [3]): binds
- binding result (MBP-MAX (Homo sapiens); [3]): binds
- binding result [1, 3]: no binding
- binding result (MBP-MBD2 (Homo sapiens); 1 nM in HEK293T nuclear extract, hmC at all C of both strands outside primers (CpG and CpH)): no binding

Sequence: CTGGGCGGAAACCAAGTACGCAACTTGCTCTTACACGCCTCAGCGAGAGAGCGAGTCCTACCATTGGGTAGGCAGCCCGCCTTTCCTCTGCAAGGCCCTCCTTTCACCCTCCCTCATTGGGCGGGGCAGTAGATAAGGGGCGGGGATTAGGCCGGGCTTGTGGTGCGCTGCTCCCTCCTCCTTACCCCCCCCTCCCTGTCCGGTCCGGGTTCGCTTGCCTCGTCAGCGTCCGCGTTTTTCC (double strand) [Sp1 probe mC/mC]
- binding result (MBP-MBD2 (Homo sapiens); in mouse brain nuclear extract, mC at all C of both strands outside primers, label: 5'-biotin): binds

Sequence: TTTCCAAAGCCCATTCCCTCTTTAGCCAGAGCCGGGGTGTGCAGACGGCAGTCACTAGGGGGCGCTCGGCCACCACAGGGAAGCTGGGTGAATGGAGCGAGCAGCGTCTTCGAGAGTGAGGACGTGTGTGTCTGTGTGGGTGAGTGAGTGTGTGCGTGTGGGGTTGAGGGCGTTGGAGCGGGGAGAAGGCCAGGGGTCACT (double strand) [VEGFA PCR probe mC/mC]
- binding result (MBP-RFX5 (Homo sapiens); [4]): binds
- binding result (MBP-MYC (Homo sapiens); [4]): binds more weakly
- binding result (MBP-MAX (Homo sapiens); [4]): binds more weakly
- binding result [1, 4]: no binding
- binding result (MBP-MBD2 (Homo sapiens); 1 nM in HEK293T nuclear extract, mC at all C of both strands outside primers (CpG and CpH)): binds
- binding result (RFX5 DBD (Homo sapiens); about six sites in probe, mC at all C of both strands outside primers (CpG and CpH)): binds

Sequence: TTTCCAAAGCCCATTCCCTCTTTAGCCAGAGCCGGGGTGTGCAGACGGCAGTCACTAGGGGGCGCTCGGCCACCACAGGGAAGCTGGGTGAATGGAGCGAGCAGCGTCTTCGAGAGTGAGGACGTGTGTGTCTGTGTGGGTGAGTGAGTGTGTGCGTGTGGGGTTGAGGGCGTTGGAGCGGGGAGAAGGCCAGGGGTCACT (double strand) [VEGFA PCR probe hmC/C]
- binding result (MBP-RFX5 (Homo sapiens); [5]): binds more weakly
- binding result [1, 5]: no binding
- binding result (MBP-MBD2 (Homo sapiens); 1 nM in HEK293T nuclear extract, hmC in one strand outside primers, other strand unmodified, strand order not stated explicitly): no binding
